Data on 2 molecules can be found in publication doi:10.1101/2024.12.04.626795 (bioRxiv, 2024).

Sequences of proteins named here, by UniProt entry; tags and fusion partners are left off. Residues count along the entry.
UniProt O00487, residues 2-310: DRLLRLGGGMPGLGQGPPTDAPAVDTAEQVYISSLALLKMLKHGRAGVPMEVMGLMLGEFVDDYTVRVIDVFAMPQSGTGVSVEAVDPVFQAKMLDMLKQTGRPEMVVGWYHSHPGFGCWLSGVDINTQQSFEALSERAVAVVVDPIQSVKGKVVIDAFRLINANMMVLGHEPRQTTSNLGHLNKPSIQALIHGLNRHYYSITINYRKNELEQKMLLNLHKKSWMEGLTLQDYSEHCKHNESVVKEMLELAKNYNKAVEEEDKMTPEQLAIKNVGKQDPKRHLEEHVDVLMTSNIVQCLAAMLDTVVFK
UniProt Q53H80: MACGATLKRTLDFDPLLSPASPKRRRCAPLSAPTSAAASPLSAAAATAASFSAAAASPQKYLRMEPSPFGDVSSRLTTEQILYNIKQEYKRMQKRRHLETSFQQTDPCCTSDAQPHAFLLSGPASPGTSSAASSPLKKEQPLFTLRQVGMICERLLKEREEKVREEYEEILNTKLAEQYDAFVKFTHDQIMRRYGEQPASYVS

For this assay, the target named is RPN11-HTBH (HTBH-tagged PSMD14), bait of the 26S proteasome affinity purification (human) (UniProt O00487). The experiment in a line: affinity purification with mass spectrometry.

No constants are given. Whether binding was seen depends on the method and setting. Binding seen in cells or lysates may run through a third protein. A yes stands for co-enrichment or nearness to the bait. Other partners may have been found.

Take “AKIRIN2, endogenous in HEK293 cells (from UniProt Q53H80 1-203)”: the binding entry is “binds”.

B1: PITHD1 (Proteasome Interacting Thioredoxin Domain 1), wild type (natural protein)
chain: MSHGHSHGGGGCRCAAEREEPPEQRGLAYGLYLRIDLERLQCLNESREGSGRGVFKPWEERTDRSKFVESDADEELLFNIPFTGNVKLKGIIIMGEDDDSHPSEMRLYKNIPQMSFDDTEREPDQTFSLNRDLTGELEYATKISRFSNVYHLSIHISKNFGADTTKVFYIGLRGEWTELRRHEVTICNYEASANPADHRVHQVTPQTHFIS
As for B1, the binding result is on record as “binds”.
